The values below come from the supplement of paper PMC7666118.

Chains of the proteins cited; added tags and fusions are not shown. Lines headed by an entry give the natural chain unless they say otherwise; changes in a name come on top.
UniProt Q99986: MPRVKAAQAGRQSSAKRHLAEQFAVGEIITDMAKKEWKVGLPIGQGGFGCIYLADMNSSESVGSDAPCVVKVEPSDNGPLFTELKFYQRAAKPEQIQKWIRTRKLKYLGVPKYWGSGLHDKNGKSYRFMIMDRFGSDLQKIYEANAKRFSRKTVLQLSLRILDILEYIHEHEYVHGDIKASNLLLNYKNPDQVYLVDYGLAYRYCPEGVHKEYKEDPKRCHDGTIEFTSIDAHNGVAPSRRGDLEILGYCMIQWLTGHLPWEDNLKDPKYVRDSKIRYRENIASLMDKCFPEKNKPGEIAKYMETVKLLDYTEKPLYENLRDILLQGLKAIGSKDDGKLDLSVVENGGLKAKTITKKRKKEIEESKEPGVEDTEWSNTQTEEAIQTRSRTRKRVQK
UniProt O94967: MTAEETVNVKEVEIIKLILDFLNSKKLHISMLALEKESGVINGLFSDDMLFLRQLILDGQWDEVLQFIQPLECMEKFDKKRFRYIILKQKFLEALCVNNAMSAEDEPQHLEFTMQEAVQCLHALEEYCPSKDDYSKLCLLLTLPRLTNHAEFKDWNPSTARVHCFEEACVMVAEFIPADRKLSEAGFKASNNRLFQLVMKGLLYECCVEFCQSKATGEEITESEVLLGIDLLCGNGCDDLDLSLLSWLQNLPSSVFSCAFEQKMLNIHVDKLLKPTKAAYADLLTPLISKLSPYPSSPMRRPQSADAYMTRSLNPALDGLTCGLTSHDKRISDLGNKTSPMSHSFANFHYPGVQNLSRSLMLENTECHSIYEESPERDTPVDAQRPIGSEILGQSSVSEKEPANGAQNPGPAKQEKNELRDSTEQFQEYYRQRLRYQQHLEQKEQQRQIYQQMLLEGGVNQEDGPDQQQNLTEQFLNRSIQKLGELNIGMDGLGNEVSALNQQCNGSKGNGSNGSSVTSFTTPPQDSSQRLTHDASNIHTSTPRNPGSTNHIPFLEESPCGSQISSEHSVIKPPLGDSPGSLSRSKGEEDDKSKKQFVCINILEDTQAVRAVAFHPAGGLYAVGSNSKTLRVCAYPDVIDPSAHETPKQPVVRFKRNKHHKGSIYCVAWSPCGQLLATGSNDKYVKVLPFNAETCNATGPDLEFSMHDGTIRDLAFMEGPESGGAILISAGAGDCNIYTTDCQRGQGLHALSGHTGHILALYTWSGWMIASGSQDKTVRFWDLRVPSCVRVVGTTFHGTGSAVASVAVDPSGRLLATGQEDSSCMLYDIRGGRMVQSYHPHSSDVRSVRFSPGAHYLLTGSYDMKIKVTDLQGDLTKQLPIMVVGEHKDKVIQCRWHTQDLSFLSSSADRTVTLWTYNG
UniProt Q7Z434: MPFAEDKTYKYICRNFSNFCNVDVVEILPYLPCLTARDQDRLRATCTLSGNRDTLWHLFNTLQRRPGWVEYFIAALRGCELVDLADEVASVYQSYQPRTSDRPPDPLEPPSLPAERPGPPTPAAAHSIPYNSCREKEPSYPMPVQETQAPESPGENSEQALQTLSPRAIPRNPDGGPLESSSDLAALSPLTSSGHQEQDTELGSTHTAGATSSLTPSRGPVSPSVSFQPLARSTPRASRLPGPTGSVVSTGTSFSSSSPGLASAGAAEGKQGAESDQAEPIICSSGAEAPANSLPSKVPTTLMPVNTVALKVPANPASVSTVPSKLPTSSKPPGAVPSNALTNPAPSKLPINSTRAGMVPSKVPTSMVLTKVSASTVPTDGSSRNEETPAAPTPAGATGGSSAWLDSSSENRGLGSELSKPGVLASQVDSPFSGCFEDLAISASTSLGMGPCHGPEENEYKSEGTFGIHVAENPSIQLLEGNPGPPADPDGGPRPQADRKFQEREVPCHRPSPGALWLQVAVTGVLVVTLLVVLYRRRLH
UniProt Q9NYH9: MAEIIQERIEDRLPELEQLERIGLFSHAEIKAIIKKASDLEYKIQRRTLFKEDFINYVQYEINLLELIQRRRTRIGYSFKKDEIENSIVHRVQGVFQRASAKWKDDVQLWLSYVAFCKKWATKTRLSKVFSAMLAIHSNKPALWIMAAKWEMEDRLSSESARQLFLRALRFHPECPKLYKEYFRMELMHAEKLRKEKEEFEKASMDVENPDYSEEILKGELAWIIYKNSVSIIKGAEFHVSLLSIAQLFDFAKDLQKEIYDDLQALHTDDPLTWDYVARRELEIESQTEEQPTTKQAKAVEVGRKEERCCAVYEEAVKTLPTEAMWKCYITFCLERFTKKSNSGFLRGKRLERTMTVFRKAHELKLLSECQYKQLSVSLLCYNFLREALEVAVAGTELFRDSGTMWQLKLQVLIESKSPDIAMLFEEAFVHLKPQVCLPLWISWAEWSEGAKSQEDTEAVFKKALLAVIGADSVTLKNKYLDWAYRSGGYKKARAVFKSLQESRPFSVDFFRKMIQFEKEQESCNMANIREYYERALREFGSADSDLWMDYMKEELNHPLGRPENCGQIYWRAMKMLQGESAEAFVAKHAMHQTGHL
UniProt Q8ND82: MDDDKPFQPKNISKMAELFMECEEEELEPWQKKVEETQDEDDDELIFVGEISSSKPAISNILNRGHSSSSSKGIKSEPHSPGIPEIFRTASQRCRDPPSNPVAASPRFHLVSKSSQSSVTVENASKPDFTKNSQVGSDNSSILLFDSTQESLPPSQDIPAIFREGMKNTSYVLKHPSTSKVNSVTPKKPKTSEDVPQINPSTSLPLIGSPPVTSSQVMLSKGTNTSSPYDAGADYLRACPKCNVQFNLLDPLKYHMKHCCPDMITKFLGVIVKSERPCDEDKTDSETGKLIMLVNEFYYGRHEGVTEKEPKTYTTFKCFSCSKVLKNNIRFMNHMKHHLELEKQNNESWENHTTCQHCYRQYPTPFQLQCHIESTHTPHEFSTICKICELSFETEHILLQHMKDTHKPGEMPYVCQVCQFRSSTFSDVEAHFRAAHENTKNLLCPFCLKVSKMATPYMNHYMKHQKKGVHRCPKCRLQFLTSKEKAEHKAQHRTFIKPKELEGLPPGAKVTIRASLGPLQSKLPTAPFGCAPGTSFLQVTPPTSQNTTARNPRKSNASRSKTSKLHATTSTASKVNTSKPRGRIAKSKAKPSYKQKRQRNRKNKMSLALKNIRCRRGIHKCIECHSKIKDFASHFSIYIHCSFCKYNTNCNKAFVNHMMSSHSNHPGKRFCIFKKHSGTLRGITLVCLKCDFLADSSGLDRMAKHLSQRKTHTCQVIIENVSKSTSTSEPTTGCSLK
UniProt Q9H6Y2: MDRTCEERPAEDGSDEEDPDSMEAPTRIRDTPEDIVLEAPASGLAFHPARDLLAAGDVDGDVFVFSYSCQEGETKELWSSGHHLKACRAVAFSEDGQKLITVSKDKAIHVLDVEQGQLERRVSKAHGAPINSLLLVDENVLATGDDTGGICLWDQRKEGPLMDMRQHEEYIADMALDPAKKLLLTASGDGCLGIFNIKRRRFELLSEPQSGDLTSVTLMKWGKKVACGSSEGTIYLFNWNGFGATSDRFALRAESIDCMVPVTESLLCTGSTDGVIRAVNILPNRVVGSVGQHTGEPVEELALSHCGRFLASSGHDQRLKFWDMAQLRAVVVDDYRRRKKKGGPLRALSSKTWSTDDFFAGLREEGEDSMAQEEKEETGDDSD
UniProt O95619, whole entry: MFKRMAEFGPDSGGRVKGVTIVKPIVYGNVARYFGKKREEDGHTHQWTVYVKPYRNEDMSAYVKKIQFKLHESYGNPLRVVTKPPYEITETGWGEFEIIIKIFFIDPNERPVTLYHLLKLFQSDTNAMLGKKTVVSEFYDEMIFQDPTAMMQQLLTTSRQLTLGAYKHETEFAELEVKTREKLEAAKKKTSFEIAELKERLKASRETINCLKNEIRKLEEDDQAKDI
UniProt O95365: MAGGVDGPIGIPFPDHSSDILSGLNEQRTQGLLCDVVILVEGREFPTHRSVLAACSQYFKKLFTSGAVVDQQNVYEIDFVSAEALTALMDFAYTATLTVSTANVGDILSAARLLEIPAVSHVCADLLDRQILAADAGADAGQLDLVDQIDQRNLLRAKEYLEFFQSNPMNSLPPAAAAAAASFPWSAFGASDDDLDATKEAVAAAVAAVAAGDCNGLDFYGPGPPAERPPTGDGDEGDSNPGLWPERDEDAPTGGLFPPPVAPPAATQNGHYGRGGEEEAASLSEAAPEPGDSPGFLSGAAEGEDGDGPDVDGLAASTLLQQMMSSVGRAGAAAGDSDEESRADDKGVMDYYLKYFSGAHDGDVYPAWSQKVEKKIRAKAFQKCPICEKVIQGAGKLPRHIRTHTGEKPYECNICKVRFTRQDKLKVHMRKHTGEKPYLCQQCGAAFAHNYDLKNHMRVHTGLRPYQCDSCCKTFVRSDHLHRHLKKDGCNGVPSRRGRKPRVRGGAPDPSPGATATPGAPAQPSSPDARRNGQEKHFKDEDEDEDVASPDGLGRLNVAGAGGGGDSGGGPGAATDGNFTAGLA
UniProt Q5VIR6: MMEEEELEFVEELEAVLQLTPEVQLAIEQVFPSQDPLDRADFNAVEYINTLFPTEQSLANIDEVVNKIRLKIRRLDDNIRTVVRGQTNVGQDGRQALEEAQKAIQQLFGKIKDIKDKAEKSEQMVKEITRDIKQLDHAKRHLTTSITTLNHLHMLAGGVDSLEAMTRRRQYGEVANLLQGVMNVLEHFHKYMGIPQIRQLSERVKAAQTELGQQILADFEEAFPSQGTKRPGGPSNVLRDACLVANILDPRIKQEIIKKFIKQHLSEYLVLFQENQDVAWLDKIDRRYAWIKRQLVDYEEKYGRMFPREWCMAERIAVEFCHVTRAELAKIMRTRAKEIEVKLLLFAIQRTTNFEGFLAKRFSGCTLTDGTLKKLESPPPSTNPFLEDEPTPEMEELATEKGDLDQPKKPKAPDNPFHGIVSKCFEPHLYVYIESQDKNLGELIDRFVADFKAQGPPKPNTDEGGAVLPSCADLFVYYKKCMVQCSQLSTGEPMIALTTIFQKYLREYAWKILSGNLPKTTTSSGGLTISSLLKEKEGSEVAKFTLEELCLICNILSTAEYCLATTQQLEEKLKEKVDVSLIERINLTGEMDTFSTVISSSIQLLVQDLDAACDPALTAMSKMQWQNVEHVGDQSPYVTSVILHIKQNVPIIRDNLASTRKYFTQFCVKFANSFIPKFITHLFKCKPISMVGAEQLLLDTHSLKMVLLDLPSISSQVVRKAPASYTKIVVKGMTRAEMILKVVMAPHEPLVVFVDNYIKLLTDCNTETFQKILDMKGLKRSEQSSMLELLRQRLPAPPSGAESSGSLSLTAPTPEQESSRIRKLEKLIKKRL
UniProt P61962: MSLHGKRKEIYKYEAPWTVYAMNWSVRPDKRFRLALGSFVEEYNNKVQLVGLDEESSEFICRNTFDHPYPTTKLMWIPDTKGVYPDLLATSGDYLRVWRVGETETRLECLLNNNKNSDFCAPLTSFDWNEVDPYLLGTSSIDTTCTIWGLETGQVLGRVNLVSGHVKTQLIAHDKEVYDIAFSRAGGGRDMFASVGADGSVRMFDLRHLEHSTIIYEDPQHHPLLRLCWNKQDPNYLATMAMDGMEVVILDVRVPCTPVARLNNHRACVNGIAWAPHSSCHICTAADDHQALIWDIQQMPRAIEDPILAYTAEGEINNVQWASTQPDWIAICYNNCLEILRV

The list shows a part of the results.

Compound in the experiment: COc1ccc(Cn2ccc3ccc(C(=O)NO)cc32)cc1
The experiment can be described thus: dose-dependent thermal stabilisation call (2D-TPP, DLPTP, 10% FDR) (binary (1 = stabilised)); higher = stabilised by the compound. The following applies: system: HL-60 intact cells; concentration range 0.04-10 µM.
On to VRK1 (UniProt Q99986), for which the “dose-dependent thermal stabilisation call” value is inactive: 0. The value for WDR47 (UniProt O94967) was inactive: 0; that for VISA (UniProt Q7Z434) was inactive: 0. As to UTP6 (UniProt Q9NYH9), the “dose-dependent thermal stabilisation call” value is inactive: 0.

Consider ZNF280C (UniProt Q8ND82), for which the “dose-dependent thermal stabilisation call” value was inactive: 0.

With WDR55 (UniProt Q9H6Y2), the “dose-dependent thermal stabilisation call” value was inactive: 0. Take YEATS4 (UniProt O95619): the “dose-dependent thermal stabilisation call” value was inactive: 0. Regarding ZBTB7A (UniProt O95365), the “dose-dependent thermal stabilisation call” value is inactive: 0. The value for WDR12 (UniProt Q9GZL7) was inactive: 0; that for VPS53 (UniProt Q5VIR6) was inactive: 0; that for WDR68 (UniProt P61962) was inactive: 0.
